Patent publication US20190282704A1
Results are given in words; binding and its absence hold for the method and conditions named. Some results given as binding are weak or reduced against the parent protein; the word gives no strength.

Experiments:
Assay in all cases: Biacore, peptide immobilised, ZTS-927 as analyte; KD in FIG. 13B, not given
[1] = target: T1, Peptide ZTS-561
T1 sequence (peptide, terminal cysteines constrained with the mT2a linker (CLIPS)): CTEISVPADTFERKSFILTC

[2] = target: T2, Peptide ZTS-562
T2 sequence (peptide, constrained through the terminal cysteines; linker only shown in FIG. 13A): CEISVPADTFERKSFC

[3] = target: T3, Peptide ZTS-563
T3 sequence (peptide, terminal cysteines constrained with the mT2a linker (CLIPS)): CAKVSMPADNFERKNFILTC

[4] = target: T4, Peptide ZTS-564
T4 sequence (peptide, terminal cysteines constrained with the mT2b linker (CLIPS)): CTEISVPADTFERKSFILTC

- binding [1]: binds
- binding [2]: binds
- binding [3]: binds
- binding [4]: binds
B1: ZTS-927 (antibody)
heavy: QVLLVQSGAEVRTPGASVKIFCKASGYSFTSYTIHWLRQAPAQGLEWMGNINPTSGYTENNQRFKDRLTLTADTSTNTAYMELSSLRSADTAMYYCARWGFKYDGEWSFDVWGAGTTVTVSSASTTAPSVFPLAPSCGTTSGATVALACLVLGYFPEPVTVSWNSGALTSGVHTFPAVLQASGLYSLSSMVTVPSSRWLSDTFTCNVAHPPSNTKVDKTVRKTDHPPGPKPCDCPKCPPPEMLGGPSIFIFPPKPKDTLSISRTPEVTCLVVDLGPDDSDVQITWFVDNTQVYTAKTSPREEQFNSTYRVVSVLPILHQDWLKGKEFKCKVNSKSLPSPIERTISKAKGQPHEPQVYVLPPAQEELSRNKVSVTCLIKSFHPPDIAVEWEITGQPEPENNYRTTPPQLDSDGTYFVYSKLSVDRSHWQRGNTYTCSVSHEALHSHHTQKSLTQSPGK
light: EIQMTQSPSSLSASPGDRVTITCRASQGISIWLSWYQQKPGNIPKVLINKASNLHIGVPSRFSGSGSGTDFTLTISSLEPEDAATYYCLQSQTYPLTFGGGTKLEIKRSDAQPSVFLFQPSLDELHTGSASIVCILNDFYPKEVNVKWKVDGVVQNKGIQESTTEQNSKDSTYSLSSTLTMSSTEYQSHEKFSCEVTHKSLASTLVKSFQRSECQRE
